Test results taken from article PMC3795256.
Results are given in words; binding and its absence hold for the method and conditions named. Binding seen in cells or lysates may run through a third protein. Some results given as binding are weak or reduced against the parent protein; the word gives no strength. Tags and fused reporters may be left off the sequences shown.

Sequences of proteins named here, by UniProt entry; tags and fusion partners are left off. Residues count along the entry.
UniProt P07237, residues 18-508: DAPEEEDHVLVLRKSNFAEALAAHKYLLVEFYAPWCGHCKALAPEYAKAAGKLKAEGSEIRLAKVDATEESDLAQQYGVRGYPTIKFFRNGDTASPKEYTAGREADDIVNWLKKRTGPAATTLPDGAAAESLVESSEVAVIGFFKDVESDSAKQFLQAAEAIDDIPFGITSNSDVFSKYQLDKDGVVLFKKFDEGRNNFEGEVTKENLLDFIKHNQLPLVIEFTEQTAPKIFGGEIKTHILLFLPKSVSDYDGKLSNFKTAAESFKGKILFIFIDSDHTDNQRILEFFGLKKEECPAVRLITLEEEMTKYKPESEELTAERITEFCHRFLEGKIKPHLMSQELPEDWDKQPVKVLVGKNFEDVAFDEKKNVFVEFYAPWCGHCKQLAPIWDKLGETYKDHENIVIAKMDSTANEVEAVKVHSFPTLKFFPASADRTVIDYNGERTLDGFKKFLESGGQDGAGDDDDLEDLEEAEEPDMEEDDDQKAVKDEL

Biological target: T1, Ero1α-FLAG (ER oxidoreductin-1 α, wild type) (human) (UniProt Q96HE7)
T1 sequence: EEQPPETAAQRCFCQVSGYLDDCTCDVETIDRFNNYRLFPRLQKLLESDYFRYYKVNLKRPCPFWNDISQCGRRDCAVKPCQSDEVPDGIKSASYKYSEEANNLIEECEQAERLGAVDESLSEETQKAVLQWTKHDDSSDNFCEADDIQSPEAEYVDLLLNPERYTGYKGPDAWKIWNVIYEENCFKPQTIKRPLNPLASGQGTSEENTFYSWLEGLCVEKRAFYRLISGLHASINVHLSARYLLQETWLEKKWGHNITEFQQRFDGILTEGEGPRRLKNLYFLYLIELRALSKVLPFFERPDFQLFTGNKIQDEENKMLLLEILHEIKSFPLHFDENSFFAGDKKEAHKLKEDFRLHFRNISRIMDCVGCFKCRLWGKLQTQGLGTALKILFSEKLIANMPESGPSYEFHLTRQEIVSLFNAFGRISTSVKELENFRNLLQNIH
Experiment: co-IP; HeLa cells transfected with Prx4-FLAG or Ero1α-FLAG, with or without 0.25 μM dithiobis succinimidyl propionate (DSP) on ice; anti-FLAG immunoprecipitates eluted by FLAG peptides, Western blot

- binding: binds
Substance: protein disulfide isomerase (PDI) (from UniProt P07237 18-508)
